Reference: PubChem BioAssay AID1347075 (National Center for Advancing Translational Sciences (NCATS), 2019)
Screen size: about 400,000 compounds; about 5,500 (1.4%) were called active. Inconclusive results, whose numbers are uncertain, are shown with a selection of clear calls. The call rests on the fitted dose curve; in most records, active means well fitted cell-killing curve with a large enough effect; inconclusive means small, poorly fitted or top-dose-only effect, or effect the other way; inactive means flat fitted curve, though single readings scatter. A potency beside an inconclusive call is a rough fit, not a confirmed value. Some compounds were tested as several samples or in several runs, with calls that do not always agree.
On the % scale 0 is the no-effect control and ±100 the full control effect; potency means the concentration at half of the fitted maximal effect.

Experiment: qHTS assay for MDR1-selective chemotherapeutics: Primary screen using the parental adenocarcinoma cell KB-3-1; further: nearly all actives have a fitted effect of over 60% in size
Conditions: KB-3-1 viability, CellTiter-Glo ATP luminescence, 72 h; activity change, negative = cytotoxic: at 46.1 µM (top of the series)
Outline: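 KB-3-1 cells, DMEM (no phenol red) + 10% FBS; compound by pin transfer, 72 h, 37 °C. Readout: CellTiter-Glo luminescence after 10 min. Data normalized, curve-fitted.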
With Cc1ccc2oc(C(=O)NCc3ncc(C)[nH]3)c(C)c2c1 the Potency was active: 10.3 µM.
For CC1CCN(S(=O)(=O)c2cc(C(=O)N3CCN(c4cccc(Cl)c4)CC3)n(C)c2)CC1, the Potency was active: 16.4 µM.
In the case of O=C(C[C@H]1C(=O)N(c2ccccc2)C[C@@H]1Cc1ccccc1)Nc1ccccc1, the Potency is reported as active: 23.1 µM.
In the case of CCCCCCCCN1C(=O)[C@H](CC(=O)NCc2ccc(OC)c(OC)c2)C[C@@]2(C(=O)OC)CC(C)(C)CC=C12, the Potency is reported as inconclusive: 29.1 µM [cytotoxic, single point].
With CCn1nnnc1Sc1nc(C)nc2scc(-c3ccccc3)c12 the Potency was active: 13 µM.
In the case of O=C(CSc1nnc2sc3ccccc3n12)NCc1ccco1, the Potency is reported as inconclusive: 28.2 µM [cytotoxic, single point].
In the case of Cc1cc(N2CCN(C(C(=O)NC3CCCC3)c3ccc(F)cc3)CC2)c2ccccc2n1 (configuration not stated), the Potency is reported as inconclusive: 20.6 µM [cytotoxic, single point].
With COc1ccc2cc3cc(C(=O)N(C)C4CCCCC4)oc3nc2c1 the Potency was inconclusive: 29.1 µM [cytotoxic, single point].
In the case of COc1ccc2cc3cc(C(=O)NCCCN4CCC(C)CC4)oc3nc2c1, the activity change, negative = cytotoxic is reported as inconclusive: -59.4%.
For COc1ccc(-c2cnc3c(NC=O)cc(-c4ccccc4)cn23)cc1OC, the Potency was active: 1.16 µM.
In the case of COC(=O)C1=CN(c2ccc(N3CCOCC3)cc2)C(N)=C(C#N)C1c1ccccc1 (configuration not stated), the Potency is reported as inconclusive: 0.0018 µM [cytotoxic, full curve, poor fit].
With O=c1[nH]c(N/N=C\c2ccc3c(c2)OCO3)nc2ccccc12 the Potency was inconclusive: 29.1 µM [cytotoxic, single point].
For N=c1c2c(-c3ccccc3)c(-c3ccccc3)n(Cc3ccco3)c2ncn1CCN1CCOCC1, the Potency was inconclusive: 18.4 µM [cytotoxic, single point].
With Cc1ccc(C(=O)Cn2c(NCCO)nc3ccccc32)cc1 the Potency was inconclusive: 0.206 µM [cytotoxic, full curve, poor fit].
In the case of COc1ccccc1N(C(=O)CCl)c1cn(C(C)=O)c2ccccc12, the Potency is reported as inconclusive: 29.1 µM [cytotoxic, single point].
In the case of COC(=O)C[C@H]1CC[C@@H](NC(=O)Nc2cccc(OC)c2)[C@@H](CO)O1, the Potency is reported as “inactive”.
In the case of CCCN(C(=O)CCc1nc(-c2ccc(C)cc2)no1)c1ccc(OCC)cc1, the Potency is reported as “inactive”.
In the case of O=C(Nc1ccccc1O)c1cc(S(=O)(=O)N2CCOCC2)ccc1Cl, the Potency is reported as inconclusive: 29.1 µM [cytotoxic, single point].
In the case of Cc1ccc(NC(=O)N2CCC3(CC2)Oc2ccccc2C(=O)N3Cc2ccc(F)cc2)cc1, the Potency is reported as “inactive”.
With COc1ccc(S(=O)(=O)N2CCOCC2)cc1NC(=O)c1ccc(Cl)cc1 the Potency was “inactive”.
For COc1cc(NC(=O)c2cnc(NCc3ccccc3)nc2C)cc(OC)c1OC, the Potency was inconclusive: 16.4 µM [cytotoxic, partial curve].
For CCN(CC(O)CON=C1c2ccccc2-c2ccccc21)S(=O)(=O)c1ccc(Cl)cc1 (configuration not stated), the Potency was inconclusive: 29.1 µM [cytotoxic, single point].
For CCOc1ccc(NC(=O)CC2C(=O)N(c3ccccc3)C(=O)N2CCc2sccc2C)cc1 (configuration not stated), the Potency was inconclusive: 29.1 µM [cytotoxic, single point].
In the case of Cc1ccc(CN2CCSc3ccc(C(=O)NCc4ccccn4)cc32)cc1, the Potency is reported as “inactive”.
For Cc1nc2ccccc2c2oc(C(=O)NC3CC3)cc12, the Potency was inconclusive: 25.9 µM [cytotoxic, single point].
For O=C(/C=C/c1ccccc1[N+](=O)[O-])OCC(=O)N1CCN(c2ccccc2)CC1, the Potency was inconclusive: 29.1 µM [cytotoxic, single point].
For CCOc1ncccc1C(=O)N1CCN(c2cccc(C)c2C)CC1, the Potency was active: 1.03 µM.
For O=C(N/N=C/c1cccc(O)c1)c1cc(-c2ccccc2)nc2ccccc12, the Potency was “inactive”.
In the case of CC(C)c1ccc(C(C)NC(=S)NC2CCCCC2)cc1 (configuration not stated), the Potency is reported as inconclusive: 29.1 µM [cytotoxic, single point].
With O=C(Nc1cccc([N+](=O)[O-])c1)NC1CCCCCCC1 the Potency was inconclusive: 29.1 µM [cytotoxic, single point].
In the case of CCOc1cc2c(cc1OCC)C(c1ccccc1)N(c1ccccc1)C(=O)C2 (configuration not stated), the Potency is reported as “inactive”.
With CC(=O)N1c2ccccc2NC2=C(C(=O)CCC2)C1c1cccnc1 (configuration not stated) the Potency was inconclusive: 16.4 µM [rising, single point].
For CC(=O)c1ccc(NC(=O)c2nc(-c3ccc(Cl)cc3)n3c2CCCCC3)cc1, the Potency was inconclusive: 23.1 µM [rising, single point].
With COc1ccc(C(=O)N2CCC2(C)C(=O)NC(C)C)c(OC)c1 (configuration not stated) the Potency was “inactive”.
For CC(C)(C)OC(=O)N1CCC(c2c(C(=O)N3CCN(C(=O)c4ccco4)CC3)cnn2-c2cccc(Cl)c2)CC1, the Potency was “inactive”.
In the case of COc1cc(C)nc(-c2csc(C)n2)n1, the Potency is reported as “inactive”.
In the case of COc1ccccc1OCC(=O)NC1CCCCCCC1, the Potency is reported as inconclusive: 29.1 µM [cytotoxic, single point].
In the case of COc1ccc(-c2sc3ccccc3c2C#Cc2cncn2C)cc1, the Potency is reported as inconclusive: 29.1 µM [cytotoxic, single point].
In the case of C[C@@H]1COc2cccc(N3CCC[C@H]3CO)c2S(=O)(=O)N1, the Potency is reported as “inactive”.
In the case of CCOc1ccc(-c2nnc(-c3ccccc3)o2)cc1, the Potency is reported as “inactive”.
With CN1CCN(S(=O)(=O)c2ccc(Sc3nnnn3-c3ccccc3)c([N+](=O)[O-])c2)CC1 the Potency was inconclusive: 29.1 µM [cytotoxic, single point].
With NC(=O)N1c2ccccc2CC(=O)c2ccccc21 the Potency was “inactive”.
For Cc1c2cc(O)c(=O)cc-2oc2cc(O)c(O)cc12, the Potency was inconclusive: 20.6 µM [cytotoxic, single point].
With Cc1cc(C)c(OCCCNC2CCCC2)c(Br)c1 the Potency was inconclusive: 25.9 µM [cytotoxic, partial curve, poor fit].
In the case of COc1cc(C(=O)NCCN2C(=O)S/C(=C\c3cccs3)C2=O)cc(OC)c1OC, the Potency is reported as “inactive”.
In the case of O=C(CCCc1ccccn1)c1ccc(-c2ccccc2)cc1, the Potency is reported as “inactive”.
In the case of Cn1nnnc1Sc1ncnc2scc(-c3cccc4c3sc3ccccc34)c12, the Potency is reported as active: 20.6 µM.
In the case of COC(=O)c1cc2c(ccn2-c2ccc(F)cc2)n1CC(C)C, the Potency is reported as “inactive”.
With O=C(CSc1ccc(S(=O)(=O)N2CCCC2)cn1)Nc1ccc([N+](=O)[O-])cc1C(F)(F)F the Potency was inconclusive: 29.1 µM [cytotoxic, single point].
With NC(Cc1ccccc1)c1csc(Nc2ccc(C(=O)NCCO)cc2)n1 (configuration not stated) the Potency was “inactive”.
For CN(C)S(=O)(=O)c1ccc(Cl)c(NC(=O)c2ccncc2)c1, the Potency was inconclusive: 16.4 µM [rising, partial curve].
For Cc1ccc(C)c(NC(=S)Nc2ccc(S(=O)(=O)Nc3ncccn3)cc2)c1, the Potency was inconclusive: 23.1 µM [rising, single point].
For CCn1c(SC(=O)NC2CCCCC2)nnc1-c1cccs1, the Potency was inconclusive: 29.1 µM [cytotoxic, single point].
In the case of CC(=O)c1c(C)[nH]c(C(=O)N2CCN(c3ccccn3)CC2)c1C, the Potency is reported as “inactive”.
For CCN(CC)CCCNc1ncnc2scc(-c3ccc(F)cc3)c12, the Potency was inconclusive: 0.103 µM [rising, full curve].
For CCN(CC(=O)Nc1ccc(NC(C)=O)cc1)C(=O)c1ccc(N2C(=O)c3ccccc3C2=O)cc1, the Potency was “inactive”.
With Cc1ccc(C)c2c1[nH]c1ccc([N+](=O)[O-])cc12 the Potency was inconclusive: 16.4 µM [cytotoxic, single point].
In the case of CCOCCCn1c(SCC(=O)Nc2ccc3[nH]c(=O)[nH]c3c2)nc2ccccc2c1=O, the Potency is reported as inconclusive: 2.31 µM [rising, full curve].
For O=C1C(=C(c2ccccc2)c2ccccc2)Nc2ccccc21, the Potency was inconclusive: 29.1 µM [cytotoxic, single point].
In the case of O=C(Nc1cccc(-c2cccc(Cl)c2)c1)C1CCN(Cc2ccon2)CC1, the Potency is reported as inconclusive: 23.1 µM [cytotoxic, single point].
For Cc1cccc(-c2nc(CSCC(=O)N3CCN(c4ccccn4)CC3)c(C)o2)c1, the Potency was inconclusive: 20.6 µM [cytotoxic, single point].
With COc1ccccc1CNC(=O)Cn1cccc1C(=O)c1ccccc1C the Potency was inconclusive: 16.4 µM [cytotoxic, partial curve, poor fit].
For CCc1ccc(-n2cc(-c3ccc(F)cc3)[n+]3c2SCCC3)cc1, the Potency was active: 9.2 µM.
With COc1ccc(C=C2CS(=O)(=O)CC(=Cc3ccc(OC)cc3)C2=O)cc1 the Potency was inconclusive: 1.64 µM [cytotoxic, partial curve, poor fit].
With O=C(NCc1ccccc1)C(=O)NCC(c1cccs1)S(=O)(=O)c1cccs1 (configuration not stated) the Potency was “inactive”.
With CSc1ccccc1NC(=O)CN(C)CC(=O)Nc1c(F)cccc1F the Potency was “inactive”.
With COc1ccc(S(=O)(=O)N2CCCCCC2)cc1C(=O)OCc1cccc(OC)c1OC the Potency was inconclusive: 29.1 µM [cytotoxic, single point].
For OCCNc1ncnc2c1sc1nc(N3CCOCC3)c3c(c12)CCC3, the Potency was inconclusive: 29.1 µM [rising, single point].
In the case of COc1ccc(NC(=S)NNc2ccc([N+](=O)[O-])cc2S(=O)(=O)Nc2ccc(C)cc2C)cc1, the Potency is reported as inconclusive: 32.6 µM [cytotoxic, single point].
In the case of O=C1CCCN2N=C(SCC(=O)Nc3cccc(Cl)c3)SC2=N1, the Potency is reported as inconclusive: 23.1 µM [cytotoxic, single point].
In the case of COc1cc2nc3n(c(=O)c2cc1OC)-c1ncccc1C(=O)NC3Cc1ccccc1 (configuration not stated), the Potency is reported as “inactive”.
In the case of COc1ccccc1N1CCN(C(=O)CCC(=O)N2CCN(c3ccccc3OC)CC2)CC1, the Potency is reported as inconclusive: 3.66 µM [cytotoxic, partial curve].
